Test results: patent publication EP3915546A1, “USE OF ACID AS SOLVENT FOR PRECIPITATIONS” (leon-nanodrugs GmbH, priority 2020, dated 2021)
At least one structure is not confirmed: it was looked up by name or label, or the drawing left a doubt.

Test: Precipitation with water: total concentration in suspension and share dissolved in the mother liquor
Format: physicochemical
Protocol: Für die pharmazeutische Weiterverarbeitung der Suspension zu einem Arzneimittel ist es wünschenswert, eine Wirkstoffkonzentration von mehr als 50 mg/ml zu erzeugen. Tabelle 4: Erzeugung von ENZ Partikeln durch Fällung. Gesamtkonzentration an ENZ in der Suspension (mg/ml) und der Anteil (%) des in der Mutterlauge gelösten ENZ
Wird eine Lösung von 100 mg/ml Enzalutamide in Aceton mit gleichem Teil an Wasser gemischt, so fällt ein Großteil des Enzalutamides aus, da dessen Sättigungskonzentration überschritten wird. Die resultierende Mischung enthält 50% Aceton und eine Gesamtmenge von 50 mg/ml Enzalutamide. Davon werden 7,87 mg/ml in der Mutterlauge gelöst vorliegen (Tabelle 3, Nr. 2, Aceton); dies entspricht 15,7 % der Gesamtmenge von 50 mg/ml (Tabelle 4, Nr. 2, Aceton). Diese gelöste Menge an Enzalutamide (15,7 % der Gesamtmenge) ist zu hoch und führt zu einem unerwünschten und schnellen Wachstum der Partikel.

[1] = Fällung aus Aceton (saturated) with Wasser, Lösungsmittel-Gehalt der Mischung 9,09 %
[2] = Fällung aus Aceton (saturated) with Wasser, Lösungsmittel-Gehalt der Mischung 25 %
[3] = Fällung aus Aceton (saturated) with Wasser, Lösungsmittel-Gehalt der Mischung 33,3 %
[4] = Fällung aus Aceton (saturated) with Wasser, Lösungsmittel-Gehalt der Mischung 50 %
[5] = Fällung aus Ameisensäure (saturated) with Wasser, Lösungsmittel-Gehalt der Mischung 9,09 %
[6] = Fällung aus Eisessig (saturated) with Wasser, Lösungsmittel-Gehalt der Mischung 9,09 %
[7] = Fällung aus Eisessig (saturated) with Wasser, Lösungsmittel-Gehalt der Mischung 25 %
[8] = Fällung aus Eisessig (saturated) with Wasser, Lösungsmittel-Gehalt der Mischung 33,3 %
[9] = Fällung aus Eisessig (saturated) with Wasser, Lösungsmittel-Gehalt der Mischung 50 %
[10] = Fällung aus Ethanol (saturated) with Wasser, Lösungsmittel-Gehalt der Mischung 9,09 %
[11] = Fällung aus Ethanol (saturated) with Wasser, Lösungsmittel-Gehalt der Mischung 25 %
[12] = Fällung aus Ethanol (saturated) with Wasser, Lösungsmittel-Gehalt der Mischung 33,3 %
[13] = Fällung aus Ethanol (saturated) with Wasser, Lösungsmittel-Gehalt der Mischung 50 %
[14] = Fällung aus THF (saturated) with Wasser, Lösungsmittel-Gehalt der Mischung 9,09 %
[15] = Fällung aus THF (saturated) with Wasser, Lösungsmittel-Gehalt der Mischung 25 %
[16] = Fällung aus THF (saturated) with Wasser, Lösungsmittel-Gehalt der Mischung 33,3 %
[17] = Fällung aus THF (saturated) with Wasser, Lösungsmittel-Gehalt der Mischung 50 %
[18] = saturated solution in Aceton, Lösungsmittel-Gehalt der Mischung 100 %
[19] = saturated solution in Ameisensäure, Lösungsmittel-Gehalt der Mischung 100 %
[20] = saturated solution in Eisessig, Lösungsmittel-Gehalt der Mischung 100 %
[21] = saturated solution in Ethanol, Lösungsmittel-Gehalt der Mischung 100 %
[22] = saturated solution in THF, Lösungsmittel-Gehalt der Mischung 100 %

CCC(C)n1ncn(-c2ccc(N3CCN(c4ccc(OCC5COC(Cn6cncn6)(c6ccc(Cl)cc6Cl)O5)cc4)CC3)cc2)c1=O (centres unmarked) [ITZ, Itraconazol]
Anteil des in der Mutterlauge gelösten ITZ (davon in Lösung % in der Gesamtmenge in Suspension) [1]: 0,04% | Gesamtkonzentration an ITZ in der Suspension [1]: 0,23 mg/ml | Anteil des in der Mutterlauge gelösten ITZ (davon in Lösung % in der Gesamtmenge in Suspension) [2]: 0,35% | Gesamtkonzentration an ITZ in der Suspension [2]: 0,63 mg/ml | Anteil des in der Mutterlauge gelösten ITZ (davon in Lösung % in der Gesamtmenge in Suspension) [3]: 1,02% | Gesamtkonzentration an ITZ in der Suspension [3]: 0,83 mg/ml | Anteil des in der Mutterlauge gelösten ITZ (davon in Lösung % in der Gesamtmenge in Suspension) [4]: 3,07% | Gesamtkonzentration an ITZ in der Suspension [4]: 1,25 mg/ml | Anteil des in der Mutterlauge gelösten ITZ (davon in Lösung % in der Gesamtmenge in Suspension) [5]: 0,03% | Gesamtkonzentration an ITZ in der Suspension [5]: 39,5 mg/ml | Gesamtkonzentration an ITZ in der Suspension (Fällung aus Ameisensäure (saturated) with Wasser, Lösungsmittel-Gehalt der Mischung 25 %): 108,8 (n.b.) mg/ml | Gesamtkonzentration an ITZ in der Suspension (Fällung aus Ameisensäure (saturated) with Wasser, Lösungsmittel-Gehalt der Mischung 33,3 %): 145,0 (n.b.) mg/ml | Gesamtkonzentration an ITZ in der Suspension (Fällung aus Ameisensäure (saturated) with Wasser, Lösungsmittel-Gehalt der Mischung 50 %): 217,5 (n.b.) mg/ml | Anteil des in der Mutterlauge gelösten ITZ (davon in Lösung % in der Gesamtmenge in Suspension) [6]: 0,20% | Gesamtkonzentration an ITZ in der Suspension [6]: 14,3 mg/ml | Anteil des in der Mutterlauge gelösten ITZ (davon in Lösung % in der Gesamtmenge in Suspension) [7]: 0,02% | Gesamtkonzentration an ITZ in der Suspension [7]: 39,5 mg/ml | Anteil des in der Mutterlauge gelösten ITZ (davon in Lösung % in der Gesamtmenge in Suspension) [8]: 0,40% | Gesamtkonzentration an ITZ in der Suspension [8]: 52,6 mg/ml | Anteil des in der Mutterlauge gelösten ITZ (davon in Lösung % in der Gesamtmenge in Suspension) [9]: 1,84% | Gesamtkonzentration an ITZ in der Suspension [9]: 78,9 mg/ml | Anteil des in der Mutterlauge gelösten ITZ (davon in Lösung % in der Gesamtmenge in Suspension) [10]: 32,4% | Gesamtkonzentration an ITZ in der Suspension [10]: 0,03 mg/ml | Anteil des in der Mutterlauge gelösten ITZ (davon in Lösung % in der Gesamtmenge in Suspension) [11]: 8,32% | Gesamtkonzentration an ITZ in der Suspension [11]: 0,07 mg/ml | Anteil des in der Mutterlauge gelösten ITZ (davon in Lösung % in der Gesamtmenge in Suspension) [12]: 2,08% | Gesamtkonzentration an ITZ in der Suspension [12]: 0,10 mg/ml | Anteil des in der Mutterlauge gelösten ITZ (davon in Lösung % in der Gesamtmenge in Suspension) [13]: 70,7% | Gesamtkonzentration an ITZ in der Suspension [13]: 0,14 mg/ml | Anteil des in der Mutterlauge gelösten ITZ (davon in Lösung % in der Gesamtmenge in Suspension) [14]: 0,19% | Gesamtkonzentration an ITZ in der Suspension [14]: 0,39 mg/ml | Anteil des in der Mutterlauge gelösten ITZ (davon in Lösung % in der Gesamtmenge in Suspension) [15]: 0,19% | Gesamtkonzentration an ITZ in der Suspension [15]: 1,06 mg/ml | Anteil des in der Mutterlauge gelösten ITZ (davon in Lösung % in der Gesamtmenge in Suspension) [16]: 0,88% | Gesamtkonzentration an ITZ in der Suspension [16]: 1,42 mg/ml | Anteil des in der Mutterlauge gelösten ITZ (davon in Lösung % in der Gesamtmenge in Suspension) [17]: 31,8% | Gesamtkonzentration an ITZ in der Suspension [17]: 2,13 mg/ml | Anteil des in der Mutterlauge gelösten ITZ (davon in Lösung % in der Gesamtmenge in Suspension) [18]: 100% | Gesamtkonzentration an ITZ in der Suspension [18]: 2,50 mg/ml | Anteil des in der Mutterlauge gelösten ITZ (davon in Lösung % in der Gesamtmenge in Suspension) [19]: 100% | Gesamtkonzentration an ITZ in der Suspension [19]: 435,0 mg/ml | Anteil des in der Mutterlauge gelösten ITZ (davon in Lösung % in der Gesamtmenge in Suspension) [20]: 100% | Gesamtkonzentration an ITZ in der Suspension [20]: 157,8 mg/ml | Anteil des in der Mutterlauge gelösten ITZ (davon in Lösung % in der Gesamtmenge in Suspension) [21]: 100% | Gesamtkonzentration an ITZ in der Suspension [21]: 0,29 mg/ml | Anteil des in der Mutterlauge gelösten ITZ (davon in Lösung % in der Gesamtmenge in Suspension) [22]: 100% | Gesamtkonzentration an ITZ in der Suspension [22]: 4,25 mg/ml
